Results taken from the supplement of paper PMC7661543.
The effect of the compound repeats well; differences between the knockouts mostly do not.

System: HCC-38
Test: relative cell number vs DMSO control (72 h) (% of DMSO); higher = less growth inhibition (more cells)
Experimental: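 QMAP-Seq: a pool of 5 breast cancer cell lines (ZR-75-1, SKBR3, HCC-38, MDA-MB-231, BT-20), each carrying 12 doxycycline-inducible Cas9 sgRNA perturbations (11 knockouts plus non-targeting sgNT), was treated with compounds for 72 h at four 10-fold doses (10 nM-10 uM or 1 nM-1 uM range). Barcodes were amplified and sequenced, and cell number was interpolated from 293T spike-in standard curves. The result is expressed as % of the median of DMSO wells. Two biological replicates.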

O=C1CCC(N2C(=O)c3ccccc3C2=O)C(=O)N1 (configuration not stated) [Thalidomide]
Details	relative cell number
sgRNA knockout: sgATF3, 10 nM	115
sgRNA knockout: sgATF3, 100 nM	90.5
sgRNA knockout: sgATF3, 1000 nM	126
sgRNA knockout: sgATF3, 10000 nM	109
sgRNA knockout: sgATF4, 10 nM	109
sgRNA knockout: sgATF4, 100 nM	95
sgRNA knockout: sgATF4, 1000 nM	125
sgRNA knockout: sgATF4, 10000 nM	115
sgRNA knockout: sgATF6, 10 nM	130
sgRNA knockout: sgATF6, 100 nM	94.9
sgRNA knockout: sgATF6, 1000 nM	141
sgRNA knockout: sgATF6, 10000 nM	134
sgRNA knockout: sgATG7, 10 nM	105
sgRNA knockout: sgATG7, 100 nM	93.1
sgRNA knockout: sgATG7, 1000 nM	124
sgRNA knockout: sgATG7, 10000 nM	125
sgRNA knockout: sgERN1, 10 nM	106
sgRNA knockout: sgERN1, 100 nM	94.5
sgRNA knockout: sgERN1, 1000 nM	123
sgRNA knockout: sgERN1, 10000 nM	128
sgRNA knockout: sgHSF1, 10 nM	142
sgRNA knockout: sgHSF1, 100 nM	93.5
sgRNA knockout: sgHSF1, 1000 nM	133
sgRNA knockout: sgHSF1, 10000 nM	150
sgRNA knockout: sgHSF2, 10 nM	122
sgRNA knockout: sgHSF2, 100 nM	93.8
sgRNA knockout: sgHSF2, 1000 nM	121
sgRNA knockout: sgHSF2, 10000 nM	130
sgRNA knockout: sgKEAP1, 10 nM	149
sgRNA knockout: sgKEAP1, 100 nM	106
sgRNA knockout: sgKEAP1, 1000 nM	151
sgRNA knockout: sgKEAP1, 10000 nM	169
sgRNA knockout: sgNFE2L2, 10 nM	104
sgRNA knockout: sgNFE2L2, 100 nM	91.7
sgRNA knockout: sgNFE2L2, 1000 nM	108
sgRNA knockout: sgNFE2L2, 10000 nM	113
sgRNA knockout: sgSLC35F2, 10 nM	111
sgRNA knockout: sgSLC35F2, 100 nM	85.5
sgRNA knockout: sgSLC35F2, 1000 nM	117
sgRNA knockout: sgSLC35F2, 10000 nM	112
sgRNA knockout: sgXBP1, 10 nM	112
sgRNA knockout: sgXBP1, 100 nM	94.6
sgRNA knockout: sgXBP1, 1000 nM	120
sgRNA knockout: sgXBP1, 10000 nM	125

CN(C)c1cc(NC(=O)CNC(C)(C)C)c(O)c2c1C[C@H]1C[C@H]3[C@H](N(C)C)C(O)=C(C(N)=O)C(=O)[C@@]3(O)C(O)=C1C2=O [Tigecycline]
Details	relative cell number
sgRNA knockout: sgATF3, 10 nM	101.3
sgRNA knockout: sgATF3, 100 nM	109
sgRNA knockout: sgATF3, 1000 nM	99.7
sgRNA knockout: sgATF3, 10000 nM	102.1
sgRNA knockout: sgATF4, 10 nM	91.5
sgRNA knockout: sgATF4, 100 nM	109
sgRNA knockout: sgATF4, 1000 nM	85.3
sgRNA knockout: sgATF4, 10000 nM	122
sgRNA knockout: sgATF6, 10 nM	97.4
sgRNA knockout: sgATF6, 100 nM	105
sgRNA knockout: sgATF6, 1000 nM	105
sgRNA knockout: sgATF6, 10000 nM	96.1
sgRNA knockout: sgATG7, 10 nM	91.5
sgRNA knockout: sgATG7, 100 nM	97.3
sgRNA knockout: sgATG7, 1000 nM	83.2
sgRNA knockout: sgATG7, 10000 nM	104
sgRNA knockout: sgERN1, 10 nM	96.1
sgRNA knockout: sgERN1, 100 nM	103
sgRNA knockout: sgERN1, 1000 nM	99.4
sgRNA knockout: sgERN1, 10000 nM	93.2
sgRNA knockout: sgHSF1, 10 nM	115
sgRNA knockout: sgHSF1, 100 nM	78
sgRNA knockout: sgHSF1, 1000 nM	97.5
sgRNA knockout: sgHSF1, 10000 nM	109
sgRNA knockout: sgHSF2, 10 nM	96.9
sgRNA knockout: sgHSF2, 100 nM	114
sgRNA knockout: sgHSF2, 1000 nM	101
sgRNA knockout: sgHSF2, 10000 nM	101
sgRNA knockout: sgKEAP1, 10 nM	116
sgRNA knockout: sgKEAP1, 100 nM	89
sgRNA knockout: sgKEAP1, 1000 nM	124
sgRNA knockout: sgKEAP1, 10000 nM	115
sgRNA knockout: sgNFE2L2, 10 nM	89
sgRNA knockout: sgNFE2L2, 100 nM	109
sgRNA knockout: sgNFE2L2, 1000 nM	83.2
sgRNA knockout: sgNFE2L2, 10000 nM	107
sgRNA knockout: sgSLC35F2, 10 nM	101
sgRNA knockout: sgSLC35F2, 100 nM	90.7
sgRNA knockout: sgSLC35F2, 1000 nM	101
sgRNA knockout: sgSLC35F2, 10000 nM	105
sgRNA knockout: sgXBP1, 10 nM	93.5
sgRNA knockout: sgXBP1, 100 nM	120
sgRNA knockout: sgXBP1, 1000 nM	90.1
sgRNA knockout: sgXBP1, 10000 nM	109

CC[C@@]1(O)C(=O)OCc2c1cc1n(c2=O)Cc2cc3c(CN(C)C)c(O)ccc3nc2-1 [Topotecan]
Details	relative cell number
sgRNA knockout: sgATF3, 10 nM	54.8
sgRNA knockout: sgATF3, 100 nM	20.4
sgRNA knockout: sgATF3, 1000 nM	11
sgRNA knockout: sgATF3, 10000 nM	9.67
sgRNA knockout: sgATF4, 10 nM	59.6
sgRNA knockout: sgATF4, 100 nM	18.3
sgRNA knockout: sgATF4, 1000 nM	11
sgRNA knockout: sgATF4, 10000 nM	9.2
sgRNA knockout: sgATF6, 10 nM	58.4
sgRNA knockout: sgATF6, 100 nM	18
sgRNA knockout: sgATF6, 1000 nM	10.5
sgRNA knockout: sgATF6, 10000 nM	8.95
sgRNA knockout: sgATG7, 10 nM	53.7
sgRNA knockout: sgATG7, 100 nM	20.4
sgRNA knockout: sgATG7, 1000 nM	12.1
sgRNA knockout: sgATG7, 10000 nM	7.9
sgRNA knockout: sgERN1, 10 nM	54.7
sgRNA knockout: sgERN1, 100 nM	19.3
sgRNA knockout: sgERN1, 1000 nM	11.3
sgRNA knockout: sgERN1, 10000 nM	8.45
sgRNA knockout: sgHSF1, 10 nM	60.8
sgRNA knockout: sgHSF1, 100 nM	23.2
sgRNA knockout: sgHSF1, 1000 nM	12.3
sgRNA knockout: sgHSF1, 10000 nM	6.56
sgRNA knockout: sgHSF2, 10 nM	53.8
sgRNA knockout: sgHSF2, 100 nM	24.2
sgRNA knockout: sgHSF2, 1000 nM	13.6
sgRNA knockout: sgHSF2, 10000 nM	9.97
sgRNA knockout: sgKEAP1, 10 nM	57.3
sgRNA knockout: sgKEAP1, 100 nM	19.8
sgRNA knockout: sgKEAP1, 1000 nM	8.83
sgRNA knockout: sgKEAP1, 10000 nM	9.7
sgRNA knockout: sgNFE2L2, 10 nM	61.54
sgRNA knockout: sgNFE2L2, 100 nM	18.1
sgRNA knockout: sgNFE2L2, 1000 nM	11.3
sgRNA knockout: sgNFE2L2, 10000 nM	7.26
sgRNA knockout: sgSLC35F2, 10 nM	56.1
sgRNA knockout: sgSLC35F2, 100 nM	21.2
sgRNA knockout: sgSLC35F2, 1000 nM	10.1
sgRNA knockout: sgSLC35F2, 10000 nM	8.89
sgRNA knockout: sgXBP1, 10 nM	59.4
sgRNA knockout: sgXBP1, 100 nM	18.8
sgRNA knockout: sgXBP1, 1000 nM	10.8
sgRNA knockout: sgXBP1, 10000 nM	7.72
